Values of other authors in patent publication US20030235609A1, “Use of cholinesterase antagonists to treat insulin resistance” (priority 2002, published 2003).

What was measured:
[1] = tested on: glucose uptake across the hindlimbs; details: cats, following atropine
[2] = tested on: hepatic uptake of glucose; details: with atropine; reduced from 80%
[3] = tested on: absorption of orally administered glucose; details: conscious dogs

CN1[C@@H]2CC[C@H]1C[C@@H](OC(=O)C(CO)c1ccccc1)C2 (stereo partly drawn) [atropine]
Glucose uptake across the hindlimbs (skeletal muscle) after bolus insulin [1]: decreased | Proportion of glucose sequestered by the liver following oral administration [2]: 44% | Absorption of orally administered glucose [3]: suppressed and delayed
